From article doi:10.1101/2021.09.17.460294
No constants are given. Whether binding was seen depends on the method and setting. In cells and extracts the contact can be indirect. Binding calls can cover weak binding; strength is not graded here. Tags and fused reporters may be left off the sequences shown.

Biological target: T1, GST-LKB1 (UniProt Q15831)
T1 sequence: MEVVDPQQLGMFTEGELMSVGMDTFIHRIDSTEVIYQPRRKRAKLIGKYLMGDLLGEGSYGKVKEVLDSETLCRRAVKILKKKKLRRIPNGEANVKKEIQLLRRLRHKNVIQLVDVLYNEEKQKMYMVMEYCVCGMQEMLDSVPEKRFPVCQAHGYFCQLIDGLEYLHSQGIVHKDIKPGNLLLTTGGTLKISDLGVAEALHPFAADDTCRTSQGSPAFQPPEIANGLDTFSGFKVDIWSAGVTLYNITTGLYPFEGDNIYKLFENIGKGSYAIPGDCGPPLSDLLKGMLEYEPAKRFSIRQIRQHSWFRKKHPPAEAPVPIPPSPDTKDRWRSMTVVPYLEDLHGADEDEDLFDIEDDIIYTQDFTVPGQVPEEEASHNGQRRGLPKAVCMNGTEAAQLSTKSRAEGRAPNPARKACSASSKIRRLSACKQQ
Test: pull-down

Substance: Venus-flag (VF)-tagged cIAP1 N-terminal truncation (N) (domain or fragment)
- binding: binds
